Laboratory results as given in article PMC6539464.
Results are given in words; binding and its absence hold for the method and conditions named. In cells and extracts the contact can be indirect. Some binding calls cover weakened binding; strength is not graded here.

Amino acid sequences for entries named in this document (tags omitted). A change or cut given only in a name is not applied to a line headed by its entry.
UniProt Q9P287: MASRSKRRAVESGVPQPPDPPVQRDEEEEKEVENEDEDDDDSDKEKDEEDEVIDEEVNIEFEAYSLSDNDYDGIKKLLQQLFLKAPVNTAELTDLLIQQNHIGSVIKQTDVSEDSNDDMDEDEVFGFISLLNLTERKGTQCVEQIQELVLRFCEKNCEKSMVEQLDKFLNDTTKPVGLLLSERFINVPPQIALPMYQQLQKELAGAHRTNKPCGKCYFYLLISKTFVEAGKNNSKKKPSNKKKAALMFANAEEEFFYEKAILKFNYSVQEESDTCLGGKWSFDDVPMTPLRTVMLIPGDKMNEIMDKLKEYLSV
UniProt P25490: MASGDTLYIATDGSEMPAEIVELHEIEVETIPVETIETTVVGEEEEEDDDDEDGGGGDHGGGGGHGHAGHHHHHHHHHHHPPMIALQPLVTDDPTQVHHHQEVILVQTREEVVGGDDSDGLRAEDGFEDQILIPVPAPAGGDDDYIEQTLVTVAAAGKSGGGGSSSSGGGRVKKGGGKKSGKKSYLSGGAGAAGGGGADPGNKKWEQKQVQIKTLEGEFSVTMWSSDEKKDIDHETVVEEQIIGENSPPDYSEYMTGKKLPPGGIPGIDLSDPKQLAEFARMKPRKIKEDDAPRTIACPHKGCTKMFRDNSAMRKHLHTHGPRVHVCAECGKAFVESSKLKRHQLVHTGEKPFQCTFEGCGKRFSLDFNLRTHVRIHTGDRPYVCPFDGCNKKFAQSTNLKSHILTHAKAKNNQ

Assays:
[1] = target: Myc-BCCIPβ (BRCA2 and CDKN1A-interacting protein, isoform beta, 314 amino acids) (human) (UniProt Q9P287); test: co-IP; co-transfection of Flag-YY1 and Myc-BCCIP in p53-null HCT116 (p53-/-) cells; whole-cell lysate; anti-Flag M2 and anti-c-Myc agarose; western blot
[2] = target: Myc-BCCIPβ (BRCA2 and CDKN1A-interacting protein, isoform beta, 314 amino acids) (human) (UniProt Q9P287); test: co-IP; co-transfection of tagged plasmids in HCT116 (p53+/+) cells, also cells stably expressing pLVX-shNT or pLVX-shBCCIP; whole-cell lysate 48 h after transfection; anti-Flag M2 and anti-c-Myc agarose; elution with peptide or SDS loading buffer; western blot
[3] = target: Flag-YY1 (Yin Yang 1), full length (human) (UniProt P25490); test: co-IP; co-transfection of Flag-YY1 and Myc-BCCIP in p53-null HCT116 (p53-/-) cells; whole-cell lysate; anti-Flag M2 and anti-c-Myc agarose; western blot
[4] = target: Flag-YY1 (Yin Yang 1), full length (human) (UniProt P25490); test: co-IP; co-transfection of tagged plasmids in HCT116 (p53+/+) cells, also cells stably expressing pLVX-shNT or pLVX-shBCCIP; whole-cell lysate 48 h after transfection; anti-Flag M2 and anti-c-Myc agarose; elution with peptide or SDS loading buffer; western blot

Substance	binding [1]	binding [2]	binding [3]	binding [4]
Flag-YY1 (Yin Yang 1), full length (from UniProt P25490 1-414)	binds weakly	binds	–	–
Myc-BCCIPβ (BRCA2 and CDKN1A-interacting protein, isoform beta, 314 amino acids) (from UniProt Q9P287-1 1-314)	–	–	binds weakly	binds
